Test results: patent US20200299328A1 (SOUTH CHINA UNIVERSITY OF TECHNOLOGY, priority 2018, published 2020)

Assay: general procedure: Fmoc solid-phase peptide synthesis; Wang resin; DCC/DMAP for first amino acid; HOBt for remaining couplings
Settings: whole synthesis, scale of the general procedure 0.0125 mmoL resin

Q: For Pro-Pro-Lys-Asn-Trp, which “final HPLC purity” value is on record?
A: more than 99%
